Reference: patent US12252522B2, “Myokines for treating cell proliferative and metabolic diseases and disorders” (Northwestern University, priority 2019, dated 2025)
At least one compound was matched to its structure with a doubt left.

Test system: A2780 ovarian cancer cells
Assay: single cell sequencing of global transcriptional space after chemotherapy
Type: cell-based
Details: A2780, paclitaxel 48 h

Cc1ccc(-c2cc(C(F)(F)F)nn2-c2ccc(S(N)(=O)=O)cc2)cc1 [celecoxib]
global transcriptional space: reduces it
